Data as given in article PMC5399837.
No constants are given. Whether binding was seen depends on the method and setting. Binding seen in cells or lysates may run through a third protein. A yes stands for co-enrichment or nearness to the bait. Other partners may have been found. No binding means not detected with the bait.

T1: Fimbrial protein; PilS cassette (Neisseria meningitidis (endogenous in strain MC58)) (UniProt P05431)
T1 sequence: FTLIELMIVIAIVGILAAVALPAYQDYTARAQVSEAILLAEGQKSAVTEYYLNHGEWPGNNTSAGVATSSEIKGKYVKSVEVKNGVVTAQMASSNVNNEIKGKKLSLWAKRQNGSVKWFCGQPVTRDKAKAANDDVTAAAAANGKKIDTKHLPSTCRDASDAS

T2: Pilus assembly protein PilG (Neisseria meningitidis (endogenous in strain MC58)) (UniProt Q7DDR1)
T2 sequence: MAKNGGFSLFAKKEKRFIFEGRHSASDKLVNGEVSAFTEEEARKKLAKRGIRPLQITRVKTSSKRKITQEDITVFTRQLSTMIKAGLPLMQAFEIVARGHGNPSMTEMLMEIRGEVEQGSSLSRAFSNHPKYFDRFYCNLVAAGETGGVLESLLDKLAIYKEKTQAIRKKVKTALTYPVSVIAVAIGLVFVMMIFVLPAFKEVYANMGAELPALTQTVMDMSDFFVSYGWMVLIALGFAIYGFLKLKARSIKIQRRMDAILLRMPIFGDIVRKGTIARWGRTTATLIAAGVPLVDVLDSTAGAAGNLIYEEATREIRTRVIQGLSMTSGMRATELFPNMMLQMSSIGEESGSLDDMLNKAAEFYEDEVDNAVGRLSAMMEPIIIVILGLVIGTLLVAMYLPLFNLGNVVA

B1: Probable malate:quinone oxidoreductase (enzyme, UniProt Q9JXD7 1-488)
chain: MAEATDVVLVGGGIMSATLGVLLKELEPSWEITLIERLEDVALESSNAWNNAGTGHSALCELNYAPLGANGIIDPARALNIAEQFHVSRQFWATLVAEGKLEDNSFINAVPHMSLVMNEDHCSYLQKRYDAFKTQKLFENMEFSTDRNKISDWAPLMMRGRDENQPVAANYSAEGTDVDFGRLTRQMVKYLQGKGVKTEFNRHVEDIKRESDGAWVLKTADTRNPDGQLTLRTRFLFLGAGGGALTLLQKSGIPEGKGYGGFPVSGLFFRNSNPETAEQHNAKVYGQASVGAPPMSVPHLDTRNVDGKRHLMFGPYAGFRSNFLKQGSLMDLPLSIHMDNLYPMLCAGWANMPLTKYLLGELRKTKEERFASLLEYYPEANPDDWELITAGQRVQIIKKDSEKGGVLQFGTEIVAHADGSLAALLGASPGASTAVPLMIRLMHQCFPERAPSWEDRLKELVPGYGIKLNENPERADEIIAYTAKVLDI
B2: Glutaredoxin (protein, UniProt Q7DDL4 1-103)
chain: MASIHDQIKEVVTTHRVVLFMKGTKQFPQCGFSSRAVQILNAAGCTDYVTVNVLENPEVRQGIKEYSDWPTIPQLYVNGEFVGGSDILMEMYEAGELQELLKA
B3: Septum site-determining protein MinD (protein, UniProt Q7DDS7 1-271)
chain: MAKIIVVTSGKGGVGKTTTSASIATGLALRGYKTAVIDFDVGLRNLDLIMGCERRVVYDLINVIQGEATLNQALIKDKNCENLFILPASQTRDKDALTREGVEKVMQELSGKKMGFEYIICDSPAGIEQGALMALYFADEAIVTTNPEVSSVRDSDRILGILQSKSHKAEQGGSVKEHLLITRYSPERVAKGEMLSVQDICDILHIPLLGVIPESQNVLQASNSGEPVIHQDSVAASEAYKDVIARLLGENREMRFLEAEKKSFFKRLFGG
B4: PilN protein (protein, UniProt Q4W563 1-199)
chain: MNNLIKINLLPYREEMNKRKQQQFKTLMYGAVLTGVAAVAATYLFIDNMINNQSERNTLLETSIAHLDTELSEIQKLKQEKDAFLIKKNKIEELQLKRLQAAKILDSLNEAVPGSTYLTSLDAVTADSYRLSGRTSSDNRVAAMMRAMPNTGIFKQPELLSIKKNNSHQEFTLQATLQPIVKAAESKENPASGNAQEAN
B5: DNA repair protein RecO (protein, UniProt Q9K0W0 1-263)
chain: MSEYRVNHEPVFMLASSPWRESSLWVEAFSRRYGRVALLARSARKRQSELRGVLVPFVPVSVSWYGSQELKTLHRAEWVGGWRQPQGRALFGGLYVNELVLKLTAREDPVPELYDALAEVMEAVCCKAAYIDDLRRFEWRLLNLLGVAPDLNRDGDGGTIAAGGTYLVRPETAVFPVGKGFAVPPHAAGVVAPGQSLIDLREGSFRTAESLQQALKITRLFIRHLLPEGLKSRQVLEQIRQFDRKETARETVPTSDGTASNAV
B6: Recombination protein RecR (protein, UniProt Q9JZ92 1-206)
chain: MMSHKKQDAFQGLIDALKVLPNVGPKSAQRIAYHLLQHKRKEAEKLVDALQTALKQVYHCAMCNTFCEGGLCDICADETRDGRRLMVVHMPADVSNMEAANCHDGLYFVLMGQINTALGMDVSAIALDRLAQRLGGGEVEEIIIATAFTAEGNATAYVLSEFFKNLPYKVSRLSQGIPLGGELEYVDAGTLAQAVYERRLIKEGGA
B7: Single-stranded DNA-binding protein (protein, UniProt P66849 1-174)
chain: MSLNKVILIGRLGRDPEVRYMPNGEAVCNFSVATSETWNDRNGQRVERTEWHNITMYRKLAEIAGQYLKKGGLVYLEGRIQSRKYQGKDGIERTAYDIVANEMKMLGGRNENSGGAPYEEGYGQSQEAYQRPAQQSRQPASDAPSHPQEAPAAPRRQPVPAAAPVEDIDDDIPF
B8: PilM protein (protein, UniProt Q9JY02 1-371)
chain: MRLFKSLKNPKKTDAKLPKKSSGLNNRAAIGIDIDQHSIKMVQLSGRSLNQIQLEKYVIAKLPKNIIQGNKVQNYDQLVTYLQQAYAKLGTSCKNIIASVPQNLATIEQLTYTDKDAELDLQGFVESSISEVSSISLEEANYDYQVLSQSAAGEAVLAVASRKDEIEPLIDAFNAAGMKLSALDVDIFGQYNAYALWINHFAPELAAEKVAIFGVYAAQTYALVIQDGKILYKQETSVSEEQLNQLIQRTYQVTEEKAEEIINSPQKPSDYQESVANYFNQQITQEIQRVLQFYYTTQTADDMTDIKHILLTGEAARQEGIAQTVASQTNADVQCVHPARYFADNLKTDKQQFELDAPTLTRAFGLAVRGL
B9: Type IV pilus biogenesis and competence protein PilQ (protein, UniProt Q70M91 25-769)
chain: GNITDIKVSSLPNKQKIVKVSFDKEIVNPTGFVTSSPARIALDFEQTGISMDQQVLEYADPLLSKISAAQNSSRARLVLNLNKPGQYNTEVRGNKVWIFINESDDTVSAPARPAVKAAPAAPAKQQAAAPSTKSAVSVSEPFTPAKQQAAAPFTESVVSVSAPFSPAKQQAAASAKQQAAAPAKQQAAAPAKQQAAAPAKQTNIDFRKDGKNAGIIELAALGFAGQPDISQQHDHIIVTLKNHTLPTTLQRSLDVADFKTPVQKVTLKRLNNDTQLIITTAGNWELVNKSAAPGYFTFQVLPKKQNLESGGVNNAPKTFTGRKISLDFQDVEIRTILQILAKESGMNIVASDSVNGKMTLSLKDVPWDQALDLVMQARNLDMRQQGNIVNIAPRDELLAKDKALLQAEKDIADLGALYSQNFQLKYKNVEEFRSILRLDNADTTGNRNTLISGRGSVLIDPATNTLIVTDTRSVIEKFRKLIDELDVPAQQVMIEARIVEAADGFSRDLGVKFGATGKKKLKNDTSAFGWGVNSGFGGDDKWGAETKINLPITAAANSISLVRAISSGALNLELSASESLSKTKTLANPRVLTQNRKEAKIESGYEIPFTVTSIANGGSSTNTELKKAVLGLTVTPNITPDGQIIMTVKINKDSPAQCASGNQTILCISTKNLNTQAMVENGGTLIVGGIYEEDNGNTLTKVPLLGDIPVIGNLFKTRGKKTDRRELLIFITPRIMGTAGNSLRY
B10: Cell division protein FtsZ (protein, UniProt P0A0S6 1-392)
chain: MEFVYDVAESAVSPAVIKVIGLGGGGCNAINNMVANNVRGVEFISANTDAQSLAKNHAAKRIQLGTNLTRGLGAGANPDIGRAAAQEDREAIEEAIRGANMLFITTGMGGGTGTGSAPVVAEIAKSLGILTVAVVTRPFAYEGKRVHVAQAGLEQLKEHVDSLIIIPNDKLMTALGEDVTMREAFRAADNVLRDAVAGISEVVTCPSEIINLDFADVKTVMSNRGIAMMGSGYAQGIDRARMATDQAISSPLLDDVTLDGARGVLVNITTAPGCLKMSELSEVMKIVNQSAHPDLECKFGAAEDETMSEDAIRITIIATGLKEKGAVDFVPAREVEAVAPSKQEQSHNVEGMIRTNRGIRTMNLTAADFDNQSVLDDFEIPAILRRQHNSDK
B11: Cell division protein FtsA (protein, UniProt Q9K0X8 1-414)
chain: MEQQQRYISVLDIGTSKVLALIGEVQDDDKINIVGLGQAPSRGLRAGMVTNIDATVQAIRQAVNDAELMADTKITHVTTGIAGNHIRSLNSQGVVKIKDGEVTQADIDRAIETAKAINIPPDQKILDAVVQDYIIDTQLGVREPIGMSGVRLDTRVHIITGASTAVQNVQKCIERCGLKSDQIMLQPLASGQAVLTEDEKDLGVCVIDIGGGTTDIAVYMNGAIRHTSVIPAGGNLITKDLSKSLRTPLDAAEYIKIHYGVASCDTEGLGEMIEVPGVGDRTSRQVSSKVLAAIISARIQEIFGVVLGELQKSGFPKEVLNAGIVLTGGVSMMTGIVEFAEKIFDLPVRTGAPQEMGGLSDRVRTPRFSTAIGLLHAACKLEGNLPQPENGAVQEREGGGGLLARLKRWIENSF
B12: PilO protein (protein, UniProt Q7DD78 1-215)
chain: MASKSSKTNLDLNNLHLLNLPARLFIALLAVAAVLGLGYAGLFKSQMESLEEYEAKETELKNTYKQKSIDAASLNNLRDELASIRSAFDIMLKQLPTDAEIPNLVQELHQAGSSNGLRLDSVMPQPPVDDGPIKRLPYSISITGNYEQISQFTRDVGSLSRIITLESLKIAQSPENGGNPDGKSSILNLSAIATTYQAKSVEELAAEAAQNAEQK
B13: Fimbrial protein; PilS cassette (protein, UniProt P05431 8-170)
chain: T1 sequence

How the values were obtained:
[1] = target: T1, Fimbrial protein; PilS cassette (Neisseria meningitidis (endogenous in strain MC58)); test: affinity purification with mass spectrometry; Co-IP with rabbit polyclonal antibody raised against purified Tfp (PilE), Dynabeads Co-Immunoprecipitation Kit, Nm MC58 wildtype lysate; eluate digested in solution with trypsin, LC-MS/MS
[2] = target: DNA processing chain A (Neisseria meningitidis (endogenous in strain MC58)) (UniProt Q9K1K1); test: affinity purification with mass spectrometry; Dynabeads coupled to rabbit polyclonal anti-DprA antibody, incubated with Nm MC58 wildtype lysate (100 mM NaCl, 2 mM MgCl, 1 mM DTT, 1% DDM) at 4 °C for 1.5 h; eluate digested in solution with trypsin, LC-MS/MS; ΔdprA lysate as control
[3] = target: T2, Pilus assembly protein PilG (Neisseria meningitidis (endogenous in strain MC58)); test: affinity purification with mass spectrometry; Dynabeads coupled to rabbit polyclonal anti-PilG antibody, incubated with Nm MC58 wildtype lysate (100 mM NaCl, 2 mM MgCl, 1 mM DTT, 1% DDM) at 4 °C for 1.5 h; eluate digested in solution with trypsin, LC-MS/MS; ΔpilG lysate as control

Binder | binding [1] | binding [2] | binding [3]
B1 | no binding | binds | no binding
B2 | no binding | no binding | no binding
B3 | no binding | binds | no binding
B4 | binds | binds | binds
B5 | no binding | binds | no binding
B6 | no binding | binds | no binding
B7 | binds | binds | binds
B8 | no binding | no binding | no binding
B9 | no binding | binds | no binding
B10 | no binding | binds | no binding
B11 | no binding |  | no binding
B12 | no binding | no binding | no binding
B13 |  |  | binds
